This is an account of results in publication PMC3040221.

Sequences of proteins named here, by UniProt entry; tags and fusion partners are left off. Residues count along the entry.
UniProt P09055, residues 21-798: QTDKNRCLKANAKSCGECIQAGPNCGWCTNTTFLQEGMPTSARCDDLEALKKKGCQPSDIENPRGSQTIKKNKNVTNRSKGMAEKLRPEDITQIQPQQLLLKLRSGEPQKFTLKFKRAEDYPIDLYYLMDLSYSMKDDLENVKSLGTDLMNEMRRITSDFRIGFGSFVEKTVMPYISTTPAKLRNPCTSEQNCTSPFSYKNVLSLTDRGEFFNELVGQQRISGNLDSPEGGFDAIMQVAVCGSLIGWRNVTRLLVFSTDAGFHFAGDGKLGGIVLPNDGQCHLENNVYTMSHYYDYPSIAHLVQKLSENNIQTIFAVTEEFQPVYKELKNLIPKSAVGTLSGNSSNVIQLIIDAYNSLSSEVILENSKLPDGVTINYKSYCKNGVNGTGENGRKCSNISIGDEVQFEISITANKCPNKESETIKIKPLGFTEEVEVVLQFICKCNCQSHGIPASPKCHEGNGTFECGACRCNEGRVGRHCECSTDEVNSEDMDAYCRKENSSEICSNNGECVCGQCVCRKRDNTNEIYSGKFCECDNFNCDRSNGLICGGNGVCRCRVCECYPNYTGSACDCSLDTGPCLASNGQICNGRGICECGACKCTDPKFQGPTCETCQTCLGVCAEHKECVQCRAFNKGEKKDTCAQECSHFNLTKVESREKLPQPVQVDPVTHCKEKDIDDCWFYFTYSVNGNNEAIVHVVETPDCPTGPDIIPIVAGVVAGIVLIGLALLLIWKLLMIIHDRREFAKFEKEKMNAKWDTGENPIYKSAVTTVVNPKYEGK
UniProt P19091: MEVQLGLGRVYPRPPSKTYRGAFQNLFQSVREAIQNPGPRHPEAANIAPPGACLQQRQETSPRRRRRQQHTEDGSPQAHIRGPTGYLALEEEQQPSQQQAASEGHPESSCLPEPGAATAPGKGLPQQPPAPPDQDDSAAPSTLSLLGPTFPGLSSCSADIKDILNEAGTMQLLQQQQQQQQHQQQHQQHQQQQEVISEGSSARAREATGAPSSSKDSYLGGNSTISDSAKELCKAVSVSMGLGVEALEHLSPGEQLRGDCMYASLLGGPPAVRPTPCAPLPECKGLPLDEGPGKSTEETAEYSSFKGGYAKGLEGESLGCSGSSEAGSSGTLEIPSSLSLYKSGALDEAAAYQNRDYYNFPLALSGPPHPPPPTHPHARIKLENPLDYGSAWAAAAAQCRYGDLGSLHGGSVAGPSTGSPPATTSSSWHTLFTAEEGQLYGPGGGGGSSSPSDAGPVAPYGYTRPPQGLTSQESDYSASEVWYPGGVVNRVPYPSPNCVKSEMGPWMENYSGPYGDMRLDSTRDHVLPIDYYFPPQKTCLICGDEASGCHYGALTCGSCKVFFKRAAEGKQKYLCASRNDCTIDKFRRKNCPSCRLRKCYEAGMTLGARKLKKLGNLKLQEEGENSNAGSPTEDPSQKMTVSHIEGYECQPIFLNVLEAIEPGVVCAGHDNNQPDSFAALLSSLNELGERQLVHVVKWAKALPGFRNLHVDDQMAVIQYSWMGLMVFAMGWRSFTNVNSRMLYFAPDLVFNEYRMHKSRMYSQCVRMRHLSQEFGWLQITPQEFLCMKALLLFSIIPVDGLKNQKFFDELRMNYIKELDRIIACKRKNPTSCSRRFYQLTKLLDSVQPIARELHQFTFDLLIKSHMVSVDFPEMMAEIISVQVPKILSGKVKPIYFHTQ
UniProt P34152: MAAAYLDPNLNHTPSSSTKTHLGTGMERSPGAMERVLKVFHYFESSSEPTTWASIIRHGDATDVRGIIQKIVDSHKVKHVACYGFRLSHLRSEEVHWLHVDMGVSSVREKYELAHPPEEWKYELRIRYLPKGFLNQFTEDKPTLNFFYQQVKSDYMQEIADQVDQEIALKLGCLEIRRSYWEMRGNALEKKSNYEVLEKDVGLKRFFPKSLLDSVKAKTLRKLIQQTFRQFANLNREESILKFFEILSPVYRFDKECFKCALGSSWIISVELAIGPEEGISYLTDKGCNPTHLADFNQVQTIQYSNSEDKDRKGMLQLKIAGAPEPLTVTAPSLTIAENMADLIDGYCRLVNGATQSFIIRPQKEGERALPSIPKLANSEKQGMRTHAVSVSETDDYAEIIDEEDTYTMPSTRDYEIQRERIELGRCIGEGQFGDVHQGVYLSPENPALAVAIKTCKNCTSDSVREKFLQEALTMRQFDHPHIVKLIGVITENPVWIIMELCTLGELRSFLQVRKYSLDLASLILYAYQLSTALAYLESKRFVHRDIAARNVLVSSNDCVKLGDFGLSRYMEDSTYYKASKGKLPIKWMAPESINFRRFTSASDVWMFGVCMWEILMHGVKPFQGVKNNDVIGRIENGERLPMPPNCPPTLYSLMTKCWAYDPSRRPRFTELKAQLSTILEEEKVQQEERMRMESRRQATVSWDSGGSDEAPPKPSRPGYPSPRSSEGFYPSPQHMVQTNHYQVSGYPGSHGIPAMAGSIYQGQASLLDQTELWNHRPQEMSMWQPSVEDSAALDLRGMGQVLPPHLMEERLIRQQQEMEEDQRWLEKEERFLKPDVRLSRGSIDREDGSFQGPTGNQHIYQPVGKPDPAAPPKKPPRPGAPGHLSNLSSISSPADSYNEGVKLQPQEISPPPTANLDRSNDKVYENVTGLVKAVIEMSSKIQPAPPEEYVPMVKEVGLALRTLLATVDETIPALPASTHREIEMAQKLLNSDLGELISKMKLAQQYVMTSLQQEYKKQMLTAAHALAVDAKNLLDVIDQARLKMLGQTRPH
UniProt Q8BTM8: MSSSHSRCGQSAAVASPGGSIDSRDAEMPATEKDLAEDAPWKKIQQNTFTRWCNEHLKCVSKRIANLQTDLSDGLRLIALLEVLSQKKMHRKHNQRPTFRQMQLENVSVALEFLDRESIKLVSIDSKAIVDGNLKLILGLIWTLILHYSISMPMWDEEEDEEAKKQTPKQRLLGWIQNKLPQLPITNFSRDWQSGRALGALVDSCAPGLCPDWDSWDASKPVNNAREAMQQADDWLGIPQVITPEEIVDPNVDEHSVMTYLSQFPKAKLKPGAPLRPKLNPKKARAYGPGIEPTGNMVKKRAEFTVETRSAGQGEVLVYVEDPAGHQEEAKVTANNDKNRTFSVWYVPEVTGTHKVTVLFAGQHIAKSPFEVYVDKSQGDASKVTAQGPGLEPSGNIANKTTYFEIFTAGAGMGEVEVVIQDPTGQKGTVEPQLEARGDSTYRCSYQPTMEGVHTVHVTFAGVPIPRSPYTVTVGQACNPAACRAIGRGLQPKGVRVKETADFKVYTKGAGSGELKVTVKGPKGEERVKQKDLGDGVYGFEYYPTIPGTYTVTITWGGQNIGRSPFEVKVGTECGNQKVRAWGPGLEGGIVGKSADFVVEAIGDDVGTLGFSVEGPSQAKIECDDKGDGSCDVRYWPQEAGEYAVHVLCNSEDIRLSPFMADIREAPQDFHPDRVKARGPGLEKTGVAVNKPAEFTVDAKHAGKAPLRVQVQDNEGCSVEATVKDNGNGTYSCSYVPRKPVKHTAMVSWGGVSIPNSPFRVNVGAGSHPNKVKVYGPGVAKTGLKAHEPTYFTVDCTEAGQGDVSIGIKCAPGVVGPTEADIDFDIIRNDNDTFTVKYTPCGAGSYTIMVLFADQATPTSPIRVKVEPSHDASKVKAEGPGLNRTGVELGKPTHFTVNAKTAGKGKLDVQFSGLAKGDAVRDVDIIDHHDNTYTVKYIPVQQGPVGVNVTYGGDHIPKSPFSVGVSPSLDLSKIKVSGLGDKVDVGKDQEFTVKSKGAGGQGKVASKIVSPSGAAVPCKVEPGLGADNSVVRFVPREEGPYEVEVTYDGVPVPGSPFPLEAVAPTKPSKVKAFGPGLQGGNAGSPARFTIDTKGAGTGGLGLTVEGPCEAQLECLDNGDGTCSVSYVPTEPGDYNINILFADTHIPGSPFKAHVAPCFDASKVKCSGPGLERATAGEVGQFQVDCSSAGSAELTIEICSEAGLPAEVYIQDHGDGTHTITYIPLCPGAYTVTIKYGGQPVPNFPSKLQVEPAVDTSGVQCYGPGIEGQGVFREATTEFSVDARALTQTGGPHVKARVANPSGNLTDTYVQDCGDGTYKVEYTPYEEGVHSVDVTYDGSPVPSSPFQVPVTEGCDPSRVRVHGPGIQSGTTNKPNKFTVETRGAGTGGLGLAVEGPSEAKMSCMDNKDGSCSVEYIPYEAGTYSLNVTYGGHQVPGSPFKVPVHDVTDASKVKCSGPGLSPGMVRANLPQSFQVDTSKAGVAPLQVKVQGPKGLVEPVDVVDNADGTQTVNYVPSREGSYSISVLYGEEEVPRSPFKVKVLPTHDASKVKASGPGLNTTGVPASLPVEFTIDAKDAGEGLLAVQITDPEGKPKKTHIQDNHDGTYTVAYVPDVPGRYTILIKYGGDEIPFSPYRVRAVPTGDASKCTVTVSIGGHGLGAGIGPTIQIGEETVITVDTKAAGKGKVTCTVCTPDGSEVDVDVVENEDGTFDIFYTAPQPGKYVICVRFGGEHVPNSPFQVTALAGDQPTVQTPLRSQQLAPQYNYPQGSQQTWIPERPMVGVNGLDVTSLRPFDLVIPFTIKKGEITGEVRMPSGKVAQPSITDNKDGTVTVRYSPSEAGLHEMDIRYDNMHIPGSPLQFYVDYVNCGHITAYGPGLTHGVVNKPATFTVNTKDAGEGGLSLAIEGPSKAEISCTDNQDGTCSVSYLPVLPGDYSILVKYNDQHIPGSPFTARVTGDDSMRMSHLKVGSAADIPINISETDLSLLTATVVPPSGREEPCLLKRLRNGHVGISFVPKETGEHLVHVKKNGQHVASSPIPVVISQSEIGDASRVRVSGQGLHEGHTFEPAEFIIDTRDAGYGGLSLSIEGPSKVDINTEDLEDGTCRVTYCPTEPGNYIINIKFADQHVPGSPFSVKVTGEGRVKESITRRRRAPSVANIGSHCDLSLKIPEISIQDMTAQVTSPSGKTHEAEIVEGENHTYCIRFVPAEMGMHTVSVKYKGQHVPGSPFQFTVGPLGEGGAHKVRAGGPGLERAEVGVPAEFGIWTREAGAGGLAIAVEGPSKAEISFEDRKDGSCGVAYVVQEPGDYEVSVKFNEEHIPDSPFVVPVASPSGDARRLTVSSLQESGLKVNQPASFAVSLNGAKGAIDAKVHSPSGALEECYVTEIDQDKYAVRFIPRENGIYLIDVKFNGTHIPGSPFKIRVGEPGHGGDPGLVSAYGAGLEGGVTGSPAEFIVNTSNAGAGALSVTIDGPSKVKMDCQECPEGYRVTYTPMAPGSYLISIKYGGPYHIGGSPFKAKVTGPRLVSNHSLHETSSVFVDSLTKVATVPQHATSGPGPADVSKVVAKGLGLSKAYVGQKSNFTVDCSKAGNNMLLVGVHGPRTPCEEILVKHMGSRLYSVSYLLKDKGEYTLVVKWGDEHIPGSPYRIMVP
UniProt Q8VI36: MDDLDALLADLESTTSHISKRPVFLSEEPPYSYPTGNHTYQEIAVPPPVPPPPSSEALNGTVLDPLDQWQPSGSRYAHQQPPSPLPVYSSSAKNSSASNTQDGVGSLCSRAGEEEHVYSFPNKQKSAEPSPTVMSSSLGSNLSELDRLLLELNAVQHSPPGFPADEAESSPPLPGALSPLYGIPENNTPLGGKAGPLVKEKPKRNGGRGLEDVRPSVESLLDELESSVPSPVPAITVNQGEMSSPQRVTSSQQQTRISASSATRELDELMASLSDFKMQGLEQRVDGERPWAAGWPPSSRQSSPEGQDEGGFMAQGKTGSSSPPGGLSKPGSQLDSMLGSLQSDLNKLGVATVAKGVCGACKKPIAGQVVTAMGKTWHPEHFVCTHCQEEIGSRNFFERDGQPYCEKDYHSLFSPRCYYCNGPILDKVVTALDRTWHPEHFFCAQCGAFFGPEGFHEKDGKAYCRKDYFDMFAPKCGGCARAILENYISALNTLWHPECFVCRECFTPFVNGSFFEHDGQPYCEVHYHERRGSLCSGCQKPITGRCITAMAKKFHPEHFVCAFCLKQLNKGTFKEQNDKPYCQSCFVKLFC

The target in assay [1] is Integrin beta 1 (endogenous, NIH3T3 fibroblasts) (mouse (endogenous in NIH3T3)) (UniProt P09055). Description: co-IP; quiescent NIH3T3 cells treated 5 min with 10 nM R1881; lysates immunoprecipitated with anti-integrin beta 1 antibody, immunoblot (Fig. 8A). Background: A western blot detects proteins with antibodies after separation by electrophoresis.
The target in assay [2] is Androgen receptor (endogenous, NIH3T3 fibroblasts) (mouse (endogenous in NIH3T3)) (UniProt P19091). Description: co-IP; quiescent NIH3T3 cells untreated or treated 5 min with R1881 (1 pM or 10 nM); lysates immunoprecipitated with anti-AR antibody, immunoblot (Fig. 6D, Fig. 8C).
Assay [3] deals with Integrin beta 1 (endogenous, NIH3T3 fibroblasts) (mouse (endogenous in NIH3T3)) (UniProt P09055). Description: co-IP; quiescent NIH3T3 cells treated 5 min with 10 nM R1881 in the presence of 10 µM Casodex; lysates immunoprecipitated with anti-integrin beta 1 antibody, immunoblot (Fig. 8A).
Assay [4] has as its target Focal adhesion kinase (endogenous, NIH3T3 fibroblasts) (mouse (endogenous in NIH3T3)) (UniProt P34152). Description: co-IP; quiescent NIH3T3 cells (untransfected or transfected with non-targeting siRNA) treated 5 min with 10 nM R1881; lysates immunoprecipitated with anti-FAK antibody, immunoblot (Fig. 2C, 7A, 7C, 8B).
The target in assay [5] is Filamin A (endogenous, NIH3T3 fibroblasts) (mouse (endogenous in NIH3T3)) (UniProt Q8BTM8). Description: co-IP; quiescent NIH3T3 cells untreated or treated 5 min with R1881 (1 pM or 10 nM); lysates immunoprecipitated with anti-FlnA antibody, immunoblot (Fig. 6C, Fig. S6).
For assay [6] the target is unchanged. As to the kind of experiment: co-IP; quiescent NIH3T3 cells treated 5 min with 10 nM R1881 in the presence of 10 microM Casodex; lysates immunoprecipitated with anti-FlnA antibody, immunoblot (Fig. 6C, Fig. S6).
For assay [7], the target named is Androgen receptor (endogenous, NIH3T3 fibroblasts) (mouse (endogenous in NIH3T3)) (UniProt P19091). As to the kind of experiment: co-IP; quiescent NIH3T3 cells treated 5 min with 10 nM R1881 in the presence of 10 microM Casodex; lysates immunoprecipitated with anti-AR antibody, immunoblot (Fig. 6D).
For assay [8], the target named is Focal adhesion kinase (endogenous, NIH3T3 fibroblasts) (mouse (endogenous in NIH3T3)) (UniProt P34152). Description: co-IP; quiescent NIH3T3 cells transfected with non-targeting siRNA, untreated (basal conditions, no R1881); lysates immunoprecipitated with anti-FAK antibody, immunoblot (Fig. 7A, 7C).

No constants are given. Whether binding was seen depends on the method and setting. Binding seen in cells or lysates may run through a third protein. Some entries that bind do so weakly or less than the wild type.

Take “Focal adhesion kinase (endogenous, NIH3T3 fibroblasts) (from UniProt P34152 1-1052) (enzyme)”: the binding result in assay [1] is listed as “binds”; in assay [2], “no binding”; in assay [3], “no binding (condition: with 10 µM Casodex)”.
Take “P-Tyr 118-paxillin (endogenous, NIH3T3 fibroblasts) (from UniProt Q8VI36 1-591)”: the binding entry in assay [4] is “binds”.
As to “Androgen receptor (endogenous, NIH3T3 fibroblasts) (from UniProt P19091 1-899)”, the binding result in assay [1] is reported as “binds”; in assay [5] it was “binds”; in assay [3] it was “no binding (condition: with 10 µM Casodex)”; in assay [6], “no binding (condition: with 10 microM Casodex)”; in assay [4], “no binding”.
Take “Integrin beta 1 (endogenous, NIH3T3 fibroblasts) (from UniProt P09055 21-798) (receptor)”: the binding entry in assay [2] is reported as “binds”; in assay [5], “binds”; in assay [7], “no binding (condition: with 10 microM Casodex)”; in assay [8], “binds weakly”; in assay [4], “binds”.
